Test results taken from PubChem BioAssay AID1345085 (National Center for Advancing Translational Sciences (NCATS), 2018).
Inconclusive means that the source gave no clear call. Such entries were picked first, then a sample of the others. A potency beside an inconclusive call is a rough fit, not a confirmed value. The source made the active and inactive calls. The call rests on the fitted dose curve; in most records, active means well fitted cell-killing curve with a large enough effect; inconclusive means small, poorly fitted or top-dose-only effect, or effect the other way; inactive means no such curve, though single readings can be large or run the other way.

test system: SW626; experiment: Confirmatory qHTS for gynecologic anti-cancer compounds from libraries of approved drugs and bioactive compounds; conditions: gynecologic cancer cell panel viability, ATPlite luminescence, 48 h; series mostly up to 57.6 µM; activity change, negative = viability loss: at the top concentration; further: nearly all actives have a fitted effect of over 55% in size
Summary of the method: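 Viability is measured as ATP-dependent luciferase light using ATPlite, read 15 min after reagent addition at room temperature. Compounds, in DMSO, span 57.5 uM down to 0.977 nM over 11 threefold steps for 48 h.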
On the % scale 0 is the no-effect control and ±100 the full control effect; potency means the concentration at half of the fitted maximal effect.

SMILES	activity change, negative = viability loss	Potency
CCNC(=O)C[C@@H]1N=C(c2ccc(Cl)cc2)c2cc(OC)ccc2-n2c(C)nnc21	inactive: -22.2%	–
CCC(=O)O[C@H]1CC[C@H]2[C@@H]3CCC4=CC(=O)CC[C@]4(C)[C@H]3CC[C@]12C	–	inconclusive: 8.63 µM [rising, partial curve, poor fit]
Cc1sc2c(c1C)C(c1ccc(Cl)cc1)=NC(CC(=O)OC(C)(C)C)c1nnc(C)n1-2 (stereo unspecified)	–	inconclusive: 0.685 µM [cytotoxic, full curve]
CCOc1ccccc1-n1c(C(C)N2CCN(C(=O)COc3ccc(Cl)cc3)CC2)nc2ccccc2c1=O (stereo unspecified)	–	active: 4.85 µM
C/C=C(/C)C(=O)O[C@H]1C(C)=C2[C@H]([C@@H]1OC(=O)CCCCCCC)[C@@](C)(OC(C)=O)C[C@H](OC(=O)CCC)[C@@]1(O)[C@H]2OC(=O)[C@@]1(C)O	–	inconclusive: 34.3 µM [cytotoxic, single point]
C=C(C)[C@H]1Cc2c(ccc3c2O[C@@H]2COc4cc(OC)c(OC)cc4[C@@H]2C3=O)O1	inactive: -16.4%	–
